In all, about 300,000 compounds went through this assay and about 3,700 (1.2%) were called active. This list was built around the results that the source calls inconclusive (neither active nor inactive); the mix of calls is not that of the screen. The call rests on the fitted dose curve; tested in HEK293 cells. Where the call is inconclusive, the potency comes from a doubtful curve fit.
test: qHTS for Inhibitors of binding or entry into cells for Lassa Virus; settings: Lassa virus pseudotype entry inhibition, cell reporter; activity change, negative = inhibition: at 37.9 µM (top of the series) unless noted; further: nearly all actives have a fitted effect of over 50% in size
On the % scale 0 is the no-effect control and ±100 the full control effect; potency means the concentration at half of the fitted maximal effect.

Row | Structure (SMILES) | Potency | activity change, negative = inhibition
1 | N#Cc1ccc(-c2csc(NNC(=O)c3ccccc3)n2)cc1 | inconclusive: 5.62 µM [inhibitor, partial curve, poor fit] | –
2 | Cc1ccc(C(=O)N2CCCC2)cc1S(=O)(=O)N1CCOCC1 | – | inactive: 1.48%
3 | CCOC(=O)C(CC)n1cnc2c(cnn2-c2ccc(Cl)cc2)c1=O (stereo unspecified) | inconclusive: 15.8 µM [inhibitor, partial curve, poor fit] | –
4 | CCc1ccc2oc(=O)cc(CN3CCN(c4ccc(F)cc4)CC3)c2c1 | inconclusive: 17.8 µM [inhibitor, single point] | –
5 | CCN(CC)S(=O)(=O)c1ccc2[nH]cc(C(=O)NCCc3ccc(OC)c(OC)c3)c(=O)c2c1 | inconclusive: 0.316 µM [inhibitor, full curve, poor fit] | –
6 | CC1=C(C(=O)OC2CCCC2)C(c2c(Cl)cccc2Cl)CC(=O)N1 (stereo unspecified) | – | inactive: 12.6% [at 46.1 µM]
7 | O=C(CC1CCS(=O)(=O)C1)NC1CCCCC1 (stereo unspecified) | – | inactive: -12.8%
8 | Cc1ccccc1N/C(=C(/C(Cl)=C(Cl)Cl)[N+](=O)[O-])n1nnc2ccccc21 | – | inactive: -0.183%
9 | CC1CCN(S(=O)(=O)c2ccc(NC(=O)c3cccs3)cc2)CC1 | inconclusive: 20 µM [inhibitor, single point] | –
10 | O=C(Cn1c(=O)n(CC2CS2)c2ccccc21)N1CCCCC1 (stereo unspecified) | inconclusive: 39.8 µM [inhibitor, partial curve, poor fit] | –
11 | CS(=O)(=O)c1ccc(S(=O)CC(=O)Oc2ccc(Cl)cc2)c([N+](=O)[O-])c1 (stereo unspecified) | inconclusive: 12.6 µM [inhibitor, partial curve, poor fit] | –
12 | CCN(CC)c1ccc(/C=N/NC(=O)c2cc(C)nc3ccccc23)cc1 | inconclusive: 8.91 µM [inhibitor, partial curve, poor fit] | –
13 | CCCCNC(=O)C1CCC(Cn2c(=O)c3sccc3n(Cc3ccccc3)c2=O)CC1 (stereo unspecified) | – | inactive: -1.59% [at 46.1 µM]
14 | Nc1ccc(-c2ccc3ccccc3n2)cc1 | inconclusive: 0.651 µM [activator, full curve] | –
15 | COc1ccc(-c2nc3c(C(=O)NCCN(C)C)cccc3c3ccccc23)cc1 | inconclusive: 20 µM [inhibitor, single point] | –
16 | COc1ccc(C(=O)O/N=C(\N)c2ccccn2)c(OC)c1 | inconclusive: 3.55 µM [inhibitor, full curve, poor fit] | –
17 | COc1ccc(NS(=O)(=O)c2ccc(N3CCOCC3)c(NC(=O)c3ccco3)c2)cc1 | inconclusive: 0.126 µM [inhibitor, full curve, poor fit] | –
18 | COc1cc(OC)cc(C(=O)NNC(=O)CCNS(=O)(=O)c2ccc(C)c(C)c2)c1 | – | inactive: 1.12%
19 | CCOc1ccc2[nH]c(=O)c(C(c3nnnn3Cc3ccco3)N3CCCC(C)C3)cc2c1 (stereo unspecified) | – | inactive: -13%
20 | CN(C)CCC(O)(c1ccccc1)c1ccccc1Cl (stereo unspecified) | inconclusive: 0.1 µM [inhibitor, full curve, poor fit] | –
21 | COc1cc(/C=C2\NC(=S)NC2=O)ccc1OCc1cccc(C(=O)O)c1 | inconclusive: 20 µM [inhibitor, single point] | –
22 | CCc1ccc(C(=O)NNc2ccc(F)cc2F)cc1 | inconclusive: 35.5 µM [inhibitor, single point] | –
23 | Cc1nn(CC(=O)NCCc2ccccc2)c(C)c1[N+](=O)[O-] | inconclusive: 10 µM [activator, partial curve] | –
24 | Cc1ccc(NC(=O)Cn2nc(C(F)(F)F)c3c2CCCC3)cc1C | inconclusive: 5.62 µM [inhibitor, single point] | –

Row | Structure (SMILES) | Potency | activity change, negative = inhibition
25 | Cc1ccsc1C=Nc1ccc(O)cc1 | inconclusive: 35.5 µM [inhibitor, single point] | –
26 | Cc1ccc(CNC(=O)c2nn(-c3ccc(Cl)cc3)nc2CO)cc1 | inconclusive: 0.794 µM [inhibitor, full curve] | –
27 | CCOc1ccc(C2=CS/C(=C(\C#N)c3nnc4n3CCCCC4)N2CC)cc1 | inconclusive: 11.6 µM [inhibitor, single point] | –
28 | Cc1cc(C(=O)O)ccc1-c1ccc(CO)o1 | – | inactive: 27.6% [at 46.1 µM]
29 | COc1ccccc1-c1nnc(NC(=O)c2ccc(S(=O)(=O)N(C)C)cc2)o1 | – | inactive: -9.91%
30 | CC(=O)c1ccc(OCc2cc(C(=O)NC3CCCCC3)no2)cc1 | inconclusive: 35.5 µM [inhibitor, single point] | –
31 | CC(=O)c1cccc(NC(=O)C2CC(=O)N(Cc3ccccc3)C2)c1 (stereo unspecified) | inconclusive: 25.9 µM [inhibitor, partial curve, poor fit] | –
32 | O=C(CSc1ccccc1)NCc1ccc(F)cc1 | inconclusive: 35.5 µM [inhibitor, single point] | –
33 | COc1ccc(S(=O)(=O)CCC(=O)N(C)c2ccc(OC)cc2OC)cc1 | inconclusive: 18.3 µM [inhibitor, partial curve, poor fit] | –
34 | O=C1Nc2ccc(Br)cc2C12OCCO2 | – | inactive: -5.51%
35 | CN1C2CCC1/C(=C\c1ccccc1)C(=O)/C2=C\c1ccccc1 | inconclusive: 14.6 µM [inhibitor, partial curve] | –
36 | C(=N\Nc1nc2ccccc2s1)/c1cccs1 | inconclusive: 9.2 µM [inhibitor, single point] | –
37 | Cc1cc(=O)oc2cc(NC(=O)C3COc4ccccc4O3)ccc12 (stereo unspecified) | inconclusive: 29.1 µM [inhibitor, single point] | –
38 | CC(=O)c1ccc(N2CCN(c3ncnc4c3c(-c3ccccc3)cn4-c3ccc(Cl)cc3)CC2)cc1 | inconclusive: 22.4 µM [activator, single point] | –
39 | COc1cc(/C=N/NC(=O)C(Cc2c[nH]c3ccccc23)NC(=O)OCc2ccccc2)cc([N+](=O)[O-])c1O (stereo unspecified) | active: 6.31 µM | –
40 | c1ccc(Cc2nn[nH]n2)cc1 | inconclusive: 35.5 µM [activator, partial curve, poor fit] | –
41 | Cc1ccc(S(=O)(=O)N2CCCN(C(=O)OC(C)(C)C)CC2)cc1 | inconclusive: 35.5 µM [inhibitor, single point] | –
42 | Cn1cnc([N+](=O)[O-])c1Nc1ccc(O)cc1 | – | inactive: 8.04%
43 | CCOC(=O)C1CCN(Cc2nc3ccccc3c(=O)n2-c2ccc(OCC)cc2)CC1 | inconclusive: 9.2 µM [inhibitor, partial curve, poor fit] | –
44 | CCn1c(NCc2c[nH]c3ccccc23)nc2ccccc21 | – | inactive: -8.96%
45 | CN1CCC(=NNC(=O)c2cn(-c3ccccc3)nc2-c2ccccc2)CC1 | inconclusive: 16.4 µM [inhibitor, single point] | –
46 | CCOc1ccc(N(CC(=O)NCCCOC)S(C)(=O)=O)cc1 | – | inactive: 2.78%
47 | O=C(CCCn1c(=O)[nH]c2ccccc2c1=O)Nc1ccc(F)cc1 | – | inactive: 5.85%
48 | Cc1ccc(S(=O)(=O)c2ccc(NN)cc2)cc1 | – | inactive: -25.7%

Row | Structure (SMILES) | Potency | activity change, negative = inhibition
49 | CCOC(=O)N1CCc2c(sc3c2C(=O)NC(c2cc(OC)c(OC)c(OC)c2)N3)C1 (stereo unspecified) | inconclusive: 4.47 µM [inhibitor, full curve, poor fit] | –
50 | COc1ccccc1NC(=O)C1CC(O)CN1C(=O)Oc1ccccc1 (stereo unspecified) | inconclusive: 5.62 µM [inhibitor, single point] | –
51 | CCN(CC)C(=O)CSc1nnc([C@@H](NC(=O)OC(C)(C)C)C(C)C)o1 | inconclusive: 13 µM [activator, partial curve] | –
52 | O=C(Cc1ccc(Cl)cc1)N1CCOCC1 | inconclusive: 3.98 µM [activator, full curve, poor fit] | –
53 | CCCCCCC1CCC(c2nc(-c3ccncc3)no2)CC1 (stereo unspecified) | – | inactive: 23%
54 | CCOc1ccc(S(=O)(=O)N2c3ccccc3CC2C)cc1 (stereo unspecified) | inconclusive: 16.4 µM [inhibitor, partial curve, poor fit] | –
55 | Cn1c(=O)c2[nH]c(SCC(=O)c3ccc(F)cc3)nc2n(C)c1=O | inconclusive: 15.8 µM [activator, single point] | –
56 | Cc1cc(C(=O)COC(=O)c2ccc([N+](=O)[O-])o2)c(C)n1CC1CCCO1 (stereo unspecified) | – | inactive: 14%
57 | NNc1n[nH]c(=S)n1N | inconclusive: 35.5 µM [inhibitor, single point] | –
58 | Cc1ccc(NC(=O)c2ccc(C)c(S(=O)(=O)N3CCOCC3)c2)nc1 | – | inactive: 15.5%
59 | O=C(O)CCC(=O)Nc1ccccc1C(=O)NCc1ccccc1 | inconclusive: 11.2 µM [activator, partial curve, poor fit] | –
60 | Cc1ccnc(NC(=O)Nc2ccc3c(c2)OCO3)c1 | inconclusive: 8.91 µM [inhibitor, partial curve, poor fit] | –
61 | Cc1cc(N2CCOCC2)n2cc(-c3ccc(F)cc3)nc2n1 | – | inactive: -3.3% [at 46.1 µM]
62 | CCOC(=O)c1c(C)[nH]c(C)c1S(=O)(=O)N1CCCC(C(=O)NCc2ccc(N(C)C)cc2)C1 (stereo unspecified) | – | inactive: 2.58% [at 46.1 µM]
63 | COc1ccc(-n2cc(C(=O)NCCc3cc(OC)ccc3OC)c3ccccc3c2=O)cc1 | – | inactive: -5.68% [at 46.1 µM]
64 | Cc1cc(NC(=O)Cn2nc(C(=O)O)c3ccccc3c2=O)ccc1Br | inconclusive: 2.51 µM [inhibitor, single point] | –
65 | COCCNC(=O)CN(CCc1ccccc1)S(=O)(=O)c1ccc(Br)cc1 | inconclusive: 6.31 µM [inhibitor, full curve] | –
66 | Cc1ccc(C(=O)NNC(=O)CCCCC(=O)NNC(=O)c2ccc(C)cc2)cc1 | – | inactive: 6.91% [at 46.1 µM]
67 | COc1ccc(-c2nnn(CC(=O)N(CCCN3CCOCC3)C(C(=O)NC3CCCC3)c3ccco3)n2)cc1 (stereo unspecified) | – | inactive: -21.8% [at 46.1 µM]
68 | Cc1ccc(NC(=O)[C@H](Cc2ccccc2)NC(=O)[C@@H]2Cc3ccccc3CN2)c(C)c1 | inconclusive: 35.5 µM [inhibitor, single point] | –
69 | O=C(Nc1cccc2nsnc12)c1ccc(F)cc1 | – | inactive: 3.9%
70 | COc1ccc(NC(=O)c2cn(-c3ccccc3)nc2-c2cc3ccccc3o2)cc1 | – | inactive: 2.2%
71 | COc1ccc(-c2nc3c(c4c2C[C@H](c2ccccc2)OC4)CN(S(=O)(=O)c2ccc(C)cc2)CC3)c(C)c1 | inconclusive: 0.473 µM [inhibitor, full curve, poor fit] | –

Fetched by structure from the entries so far:
Row | Structure (SMILES) | Potency | activity change, negative = inhibition
54 | CCOc1ccc(S(=O)(=O)N2c3ccccc3CC2C)cc1 (stereo unspecified) | inconclusive: 16.4 µM [inhibitor, partial curve, poor fit] | –
30 | CC(=O)c1ccc(OCc2cc(C(=O)NC3CCCCC3)no2)cc1 | inconclusive: 35.5 µM [inhibitor, single point] | –
50 | COc1ccccc1NC(=O)C1CC(O)CN1C(=O)Oc1ccccc1 (stereo unspecified) | inconclusive: 5.62 µM [inhibitor, single point] | –
53 | CCCCCCC1CCC(c2nc(-c3ccncc3)no2)CC1 (stereo unspecified) | – | inactive: 23%
